Paper PMC9904277 (Chemical Communications (Cambridge, England), 2023)
Strings that start with PEPTIDE1 are HELM notation: dots part the residues, brackets hold end groups and non-standard residues.

Assay: general procedure: Fmoc solid-phase peptide synthesis; Rink amide resin; Oxyma/DIC
Settings: analytical HPLC

Substance: PEPTIDE1{[ac].S.A.A.Q.L.Y.A.A.R.L.K.A.L.G.D.E.L.H.Q.[am]}$$$$V2.0
- final HPLC purity (whole synthesis): 95%

Substance: PEPTIDE1{[ac].S.A.A.Q.L.Y.A.A.R.L.K.A.L.G.D.E.F.H.Q.[am]}$$$$V2.0
- final HPLC purity (whole synthesis): 80%

Substance: PEPTIDE1{[ac].S.A.A.Q.L.L.A.A.R.L.K.A.F.G.D.E.F.H.Q.[am]}$$$$V2.0
- final HPLC purity (whole synthesis): 89%

Substance: PEPTIDE1{[ac].S.A.A.C.L.T.A.C.R.L.K.A.L.G.D.E.L.H.Q.R.T.M.W.[am]}$$$$V2.0
- final HPLC purity (whole synthesis): 99%

Substance: PEPTIDE1{[ac].S.A.A.Q.L.T.A.A.R.L.K.A.L.C.D.E.L.C.Q.R.T.M.W.[am]}|CHEM1{[Mal]}$PEPTIDE1,CHEM1,15:R3-1:R1|PEPTIDE1,CHEM1,19:R3-1:R2$$$V2.0
- final HPLC purity (cyclisation step): 90%

Substance: PEPTIDE1{[ac].S.C.A.Q.L.C.A.A.R.L.K.A.L.G.D.E.L.H.Q.R.T.M.W.[am]}|CHEM1{[Mal]}$PEPTIDE1,CHEM1,3:R3-1:R1|PEPTIDE1,CHEM1,7:R3-1:R2$$$V2.0
- final HPLC purity (cyclisation step): 99%

Substance: FAM-Ahx-TMENLSRRLKVTGDLFDIMS-NH2
- final HPLC purity (whole synthesis): 83%

Substance: PEPTIDE1{[ac].S.A.A.Q.L.Y.A.A.R.L.K.A.[Nle].G.D.E.F.H.Q.[am]}$$$$V2.0
- final HPLC purity (whole synthesis): 81%

Substance: PEPTIDE1{[ac].S.A.C.Q.L.T.C.A.R.L.K.A.L.G.D.E.L.H.Q.R.T.M.W.[am]}|CHEM1{[Mal]}$PEPTIDE1,CHEM1,4:R3-1:R1|PEPTIDE1,CHEM1,8:R3-1:R2$$$V2.0
- final HPLC purity (cyclisation step): 99%

Substance: PEPTIDE1{[ac].S.A.A.C.L.T.A.C.R.L.K.A.L.G.D.E.L.H.Q.R.T.M.W.[am]}|CHEM1{[Mal]}$PEPTIDE1,CHEM1,5:R3-1:R1|PEPTIDE1,CHEM1,9:R3-1:R2$$$V2.0
- final HPLC purity (cyclisation step): 99%

Substance: PEPTIDE1{[ac].S.A.A.Q.L.Y.A.A.R.L.K.A.F.G.D.E.F.H.Q.[am]}$$$$V2.0
- final HPLC purity (whole synthesis): 75%

Substance: PEPTIDE1{[ac].S.A.A.Q.L.T.A.A.R.L.K.A.L.G.C.E.L.H.C.R.T.M.W.[am]}$$$$V2.0
- final HPLC purity (whole synthesis): 84%

Substance: PEPTIDE1{[ac].S.A.A.Q.L.T.A.A.R.L.K.C.L.G.D.C.L.H.Q.R.T.M.W.[am]}|CHEM1{[Mal]}$PEPTIDE1,CHEM1,13:R3-1:R1|PEPTIDE1,CHEM1,17:R3-1:R2$$$V2.0
- final HPLC purity (cyclisation step): 98%

Substance: PEPTIDE1{[ac].S.A.A.Q.L.T.A.C.R.L.K.C.L.G.D.E.L.H.Q.R.T.M.W.[am]}|CHEM1{[mXyl]}$PEPTIDE1,CHEM1,9:R3-1:R1|PEPTIDE1,CHEM1,13:R3-1:R2$$$V2.0
- final HPLC purity (cyclisation step): 96%

Substance: PEPTIDE1{[ac].S.A.A.Q.L.T.A.A.R.L.K.A.L.G.D.E.L.C.Q.R.T.C.W.[am]}|CHEM1{[Mal]}$PEPTIDE1,CHEM1,19:R3-1:R1|PEPTIDE1,CHEM1,23:R3-1:R2$$$V2.0
- final HPLC purity (cyclisation step): 99%

Substance: PEPTIDE1{[ac].S.A.A.Q.L.T.A.[hCys].R.L.K.[hCys].L.G.D.E.L.H.Q.R.T.M.W.[am]}$$$$V2.0
- final HPLC purity (whole synthesis): 97%

Substance: PEPTIDE1{[ac].S.A.A.Q.L.T.A.A.R.L.K.A.L.G.D.C.L.H.Q.C.T.M.W.[am]}|CHEM1{[Mal]}$PEPTIDE1,CHEM1,17:R3-1:R1|PEPTIDE1,CHEM1,21:R3-1:R2$$$V2.0
- final HPLC purity (cyclisation step): 95%

Substance: PEPTIDE1{[ac].S.A.A.Q.L.T.A.A.R.L.C.A.L.G.C.E.L.H.Q.R.T.M.W.[am]}$$$$V2.0
- final HPLC purity (whole synthesis): 96%

Substance: PEPTIDE1{[ac].S.A.A.Q.L.L.A.A.R.L.K.A.L.G.D.E.L.H.Q.[am]}$$$$V2.0
- final HPLC purity (whole synthesis): 76%

Substance: PEPTIDE1{[ac].S.A.A.Q.L.T.A.[mS5].R.L.K.[mS5].L.G.D.E.L.H.Q.R.T.M.W.[am]}$$$$V2.0
- final HPLC purity (whole synthesis): 80%

Substance: PEPTIDE1{[ac].S.A.A.Q.L.Y.A.C.R.L.K.C.F.G.D.E.F.H.Q.[am]}$$$$V2.0
- final HPLC purity (whole synthesis): 95%

Substance: PEPTIDE1{[ac].S.A.A.Q.L.T.A.A.R.L.K.A.L.G.D.C.L.H.Q.C.T.M.W.[am]}$$$$V2.0
- final HPLC purity (whole synthesis): 99%

Substance: PEPTIDE1{[ac].S.C.A.Q.L.C.A.A.R.L.K.A.L.G.D.E.L.H.Q.R.T.M.W.[am]}$$$$V2.0
- final HPLC purity (whole synthesis): 89%

Substance: PEPTIDE1{[ac].T.M.E.N.L.S.R.R.L.K.V.T.G.D.L.F.D.I.M.S.[am]}$$$$V2.0
- final HPLC purity (whole synthesis): 93%

Substance: PEPTIDE1{[ac].S.A.A.Q.L.T.A.C.R.L.K.[hCys].L.G.D.E.L.H.Q.R.T.M.W.[am]}|CHEM1{[Mal]}$PEPTIDE1,CHEM1,9:R3-1:R1|PEPTIDE1,CHEM1,13:R3-1:R2$$$V2.0
- final HPLC purity (cyclisation step): 93%

Substance: PEPTIDE1{[ac].R.Y.G.R.E.L.R.R.M.S.D.E.F.V.D.S.F.K.K.[am]}$$$$V2.0
- final HPLC purity (whole synthesis): 94%

Substance: PEPTIDE1{[ac].S.A.A.Q.L.T.A.A.R.L.C.A.L.G.C.E.L.H.Q.R.T.M.W.[am]}|CHEM1{[Mal]}$PEPTIDE1,CHEM1,12:R3-1:R1|PEPTIDE1,CHEM1,16:R3-1:R2$$$V2.0
- final HPLC purity (cyclisation step): 98%

Substance: FAM-Ahx-SAAQLTAARLK ALGDELHQRTMW-NH 2
- final HPLC purity (whole synthesis): 99%

Substance: PEPTIDE1{[ac].S.A.A.Q.L.T.A.A.R.L.K.A.L.G.C.E.L.H.C.R.T.M.W.[am]}|CHEM1{[Mal]}$PEPTIDE1,CHEM1,16:R3-1:R1|PEPTIDE1,CHEM1,20:R3-1:R2$$$V2.0
- final HPLC purity (cyclisation step): 99%

Substance: PEPTIDE1{[ac].S.A.A.Q.L.T.A.A.R.L.K.A.L.C.D.E.L.C.Q.R.T.M.W.[am]}$$$$V2.0
- final HPLC purity (whole synthesis): 92%

Substance: PEPTIDE1{[ac].S.A.A.Q.L.T.A.[dC].R.L.K.[dC].L.G.D.E.L.H.Q.R.T.M.W.[am]}|CHEM1{[Mal]}$PEPTIDE1,CHEM1,9:R3-1:R1|PEPTIDE1,CHEM1,13:R3-1:R2$$$V2.0
- final HPLC purity (cyclisation step): 90%

Substance: PEPTIDE1{[ac].S.A.A.Q.L.T.A.C.R.L.K.C.L.G.D.E.L.H.Q.R.T.M.W.[am]}|CHEM1{[Mal]}$PEPTIDE1,CHEM1,9:R3-1:R1|PEPTIDE1,CHEM1,13:R3-1:R2$$$V2.0
- final HPLC purity (cyclisation step): 91%

Substance: PEPTIDE1{[ac].S.A.A.Q.L.T.A.[mS5st].R.L.K.[mS5st].L.G.D.E.L.H.Q.R.T.M.W.[am]}$PEPTIDE1,PEPTIDE1,9:R3-13:R3$$$V2.0
- final HPLC purity (whole synthesis): 99%

Substance: PEPTIDE1{[ac].S.A.A.Q.L.T.A.[hCys].R.L.K.[hCys].L.G.D.E.L.H.Q.R.T.M.W.[am]}|CHEM1{[Mal]}$PEPTIDE1,CHEM1,9:R3-1:R1|PEPTIDE1,CHEM1,13:R3-1:R2$$$V2.0
- final HPLC purity (cyclisation step): 88%

Substance: PEPTIDE1{[ac].S.A.A.Q.L.T.A.C.R.L.K.C.L.G.D.E.L.H.Q.R.T.M.W.[am]}$$$$V2.0
- final HPLC purity (whole synthesis): 99%

Substance: PEPTIDE1{[ac].S.A.A.Q.L.Y.A.C.R.L.K.C.F.G.D.E.F.H.Q.[am]}|CHEM1{[Mal]}$PEPTIDE1,CHEM1,9:R3-1:R1|PEPTIDE1,CHEM1,13:R3-1:R2$$$V2.0
- final HPLC purity (cyclisation step): 95%

Substance: PEPTIDE1{[ac].S.A.C.Q.L.T.C.A.R.L.K.A.L.G.D.E.L.H.Q.R.T.M.W.[am]}$$$$V2.0
- final HPLC purity (whole synthesis): 99%

Substance: PEPTIDE1{[ac].S.A.A.Q.L.T.A.A.R.L.K.A.L.G.D.E.L.H.Q.[am]}$$$$V2.0
- final HPLC purity (whole synthesis): 93%

Substance: PEPTIDE1{[ac].S.A.A.Q.L.T.A.A.R.L.K.A.L.G.D.E.L.H.Q.R.T.M.W.[am]}$$$$V2.0
- final HPLC purity (whole synthesis): 98%

Substance: PEPTIDE1{[ac].S.A.A.Q.L.T.A.A.R.L.K.C.L.G.D.C.L.H.Q.R.T.M.W.[am]}$$$$V2.0
- final HPLC purity (whole synthesis): 99%

Substance: PEPTIDE1{[ac].S.A.A.Q.L.T.A.[dC].R.L.K.[dC].L.G.D.E.L.H.Q.R.T.M.W.[am]}$$$$V2.0
- final HPLC purity (whole synthesis): 86%

Substance: PEPTIDE1{[ac].S.A.A.Q.L.T.A.A.R.L.K.A.L.G.D.E.L.C.Q.R.T.C.W.[am]}$$$$V2.0
- final HPLC purity (whole synthesis): 97%

Substance: PEPTIDE1{[ac].S.A.A.Q.L.T.A.C.R.L.K.[hCys].L.G.D.E.L.H.Q.R.T.M.W.[am]}$$$$V2.0
- final HPLC purity (whole synthesis): 82%
